Values from PubChem BioAssay AID743121 (NCATS, 2013)
Assay: 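Partners whose loss is lethal together with topoisomerase I blockade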 (primary screen). Cells: MDA-MB-231 cells, a human breast cancer line. Knock-down reagent: single siRNA against human genes, 20 nM siRNA (0.8 pmol per well). Timing: 120 h (drug added 48 h after transfection, read 72 h later). Challenge: camptothecin 20 nM (about EC30) for 72 h; vehicle 0.1% DMSO in parallel plates. Measured: 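CellTiter-Glo ATP signal, scaled to control siRNA as percent viability; sensitisation given as log2 of untreated divided by camptothecin-treated viability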. Reading the numbers: log2 vehicle/camptothecin viability: higher = stronger sensitisation to camptothecin; viability with camptothecin: higher = more viable cells. Units: viability with camptothecin in % of control. Active means: 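Each gene scored by redundant siRNA activity (RSA) over its individual siRNA ratios; a gene is called active at p < 0.001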.
Here is a random part of about 26,000 reagents tested. 167 of all reagents (0.63%) count as active. 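Calls are per gene from RSA p-values that are not deposited; an individual active-marked siRNA can sensitise only weakly.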 A number with no mark means an inactive call. Not all columns of the deposit are shown. Reagent sequences are not shown.

BRMS1L (GeneID 84312) [SID164544293] scored log2 vehicle/camptothecin viability -0.0327; viability with camptothecin 42.8.
BRMS1L (GeneID 84312) [SID164544295] showed log2 vehicle/camptothecin viability -0.318; viability with camptothecin 88.7.
With knock-down of BRMS1L (GeneID 84312) [SID164544296] the results were log2 vehicle/camptothecin viability 0.102; viability with camptothecin 44.3.
After knock-down of BRMS1L (GeneID 84312) [SID164544298], the screen gave log2 vehicle/camptothecin viability -0.286; viability with camptothecin 100.
With knock-down of PC (GeneID 5091) [SID164379571] the results were log2 vehicle/camptothecin viability -0.226; viability with camptothecin 116.
For PC (GeneID 5091) [SID164379572], the entry reads log2 vehicle/camptothecin viability -0.117; viability with camptothecin 38.5.
Knock-down of PC (GeneID 5091) [SID164379573] gave: log2 vehicle/camptothecin viability -0.606; viability with camptothecin 77.6.
After knock-down of PC (GeneID 5091) [SID164379576] the results were log2 vehicle/camptothecin viability -0.02; viability with camptothecin 102.
For MAGED1 (GeneID 9500) [SID164404153], the values are log2 vehicle/camptothecin viability -0.49; viability with camptothecin 91.5.
Against MAGED1 (GeneID 9500) [SID164404157], the entry reads log2 vehicle/camptothecin viability -0.22; viability with camptothecin 95.3.
Against MAGED1 (GeneID 9500) [SID164404159] the deposit lists log2 vehicle/camptothecin viability 0.00747; viability with camptothecin 85.5.
After knock-down of MAGED1 (GeneID 9500) [SID164404160] the results were log2 vehicle/camptothecin viability -0.0688; viability with camptothecin 46.8.

Individual results from above.
Value of MAGED1 (GeneID 9500) [SID164404157] under “viability with camptothecin”: 95.3
Result for BRMS1L (GeneID 84312) [SID164544298] under “viability with camptothecin”: 100
Under “log2 vehicle/camptothecin viability”, BRMS1L (GeneID 84312) [SID164544296] has 0.102

The listing continues:
Knock-down of SET (GeneID 6418) [SID164387640] came out at: log2 vehicle/camptothecin viability 0.629; viability with camptothecin 28.2.
After knock-down of SET (GeneID 6418) [SID164387643], the record shows log2 vehicle/camptothecin viability -0.521; viability with camptothecin 81.8.
For SET (GeneID 6418) [SID164387644], the entry reads log2 vehicle/camptothecin viability -0.00715; viability with camptothecin 78.1.
With knock-down of SET (GeneID 6418) [SID164387645], the record shows log2 vehicle/camptothecin viability 0.0558; viability with camptothecin 59.7.
PYROXD1 (GeneID 79912) [SID164534173] gave log2 vehicle/camptothecin viability -0.346; viability with camptothecin 105.
For PYROXD1 (GeneID 79912) [SID164534174], the entry reads log2 vehicle/camptothecin viability -0.48; viability with camptothecin 66.5.
With knock-down of PYROXD1 (GeneID 79912) [SID164534176], the record shows log2 vehicle/camptothecin viability -0.114; viability with camptothecin 92.9.
With knock-down of PYROXD1 (GeneID 79912) [SID164534177], the screen gave log2 vehicle/camptothecin viability -0.0524; viability with camptothecin 99.3.
Against USP48 (GeneID 84196) [SID164543536], the entry reads log2 vehicle/camptothecin viability 0.541; viability with camptothecin 33.4.
For USP48 (GeneID 84196) [SID164543538] the deposit lists log2 vehicle/camptothecin viability -0.516; viability with camptothecin 27.5.
Against USP48 (GeneID 84196) [SID164543539] the deposit lists log2 vehicle/camptothecin viability -0.443; viability with camptothecin 89.6.
For USP48 (GeneID 84196) [SID164543540], the entry reads log2 vehicle/camptothecin viability 0.281; viability with camptothecin 60.8.
Knock-down of USP48 (GeneID 84196) [SID164543541] came out at: log2 vehicle/camptothecin viability -0.119; viability with camptothecin 32.8.
USP48 (GeneID 84196) [SID164543544] showed log2 vehicle/camptothecin viability -0.561; viability with camptothecin 42.3.
After knock-down of USP48 (GeneID 84196) [SID164543545] the results were log2 vehicle/camptothecin viability -0.238; viability with camptothecin 104.
USP48 (GeneID 84196) [SID164543547] gave log2 vehicle/camptothecin viability -0.306; viability with camptothecin 74.7.
